The text below walks through data of publication PMC6396947.

Sequences of proteins named here, by UniProt entry; tags and fusion partners are left off.
UniProt Q56NI9: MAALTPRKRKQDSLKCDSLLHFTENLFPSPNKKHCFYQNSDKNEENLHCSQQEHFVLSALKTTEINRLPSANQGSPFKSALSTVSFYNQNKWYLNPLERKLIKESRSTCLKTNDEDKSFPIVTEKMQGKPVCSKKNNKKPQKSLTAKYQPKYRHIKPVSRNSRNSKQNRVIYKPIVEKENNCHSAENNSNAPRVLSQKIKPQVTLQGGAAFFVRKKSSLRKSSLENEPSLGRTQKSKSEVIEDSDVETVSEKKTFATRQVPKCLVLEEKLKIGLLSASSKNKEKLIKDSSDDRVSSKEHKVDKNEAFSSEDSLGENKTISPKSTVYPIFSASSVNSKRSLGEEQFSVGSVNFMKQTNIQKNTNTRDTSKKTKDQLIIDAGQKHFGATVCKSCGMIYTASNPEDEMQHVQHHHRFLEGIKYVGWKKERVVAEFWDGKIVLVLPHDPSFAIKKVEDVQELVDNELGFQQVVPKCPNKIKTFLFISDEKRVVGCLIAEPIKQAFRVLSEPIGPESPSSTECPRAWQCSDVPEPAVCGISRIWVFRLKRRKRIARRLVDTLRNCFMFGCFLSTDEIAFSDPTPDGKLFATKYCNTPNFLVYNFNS
UniProt Q16531: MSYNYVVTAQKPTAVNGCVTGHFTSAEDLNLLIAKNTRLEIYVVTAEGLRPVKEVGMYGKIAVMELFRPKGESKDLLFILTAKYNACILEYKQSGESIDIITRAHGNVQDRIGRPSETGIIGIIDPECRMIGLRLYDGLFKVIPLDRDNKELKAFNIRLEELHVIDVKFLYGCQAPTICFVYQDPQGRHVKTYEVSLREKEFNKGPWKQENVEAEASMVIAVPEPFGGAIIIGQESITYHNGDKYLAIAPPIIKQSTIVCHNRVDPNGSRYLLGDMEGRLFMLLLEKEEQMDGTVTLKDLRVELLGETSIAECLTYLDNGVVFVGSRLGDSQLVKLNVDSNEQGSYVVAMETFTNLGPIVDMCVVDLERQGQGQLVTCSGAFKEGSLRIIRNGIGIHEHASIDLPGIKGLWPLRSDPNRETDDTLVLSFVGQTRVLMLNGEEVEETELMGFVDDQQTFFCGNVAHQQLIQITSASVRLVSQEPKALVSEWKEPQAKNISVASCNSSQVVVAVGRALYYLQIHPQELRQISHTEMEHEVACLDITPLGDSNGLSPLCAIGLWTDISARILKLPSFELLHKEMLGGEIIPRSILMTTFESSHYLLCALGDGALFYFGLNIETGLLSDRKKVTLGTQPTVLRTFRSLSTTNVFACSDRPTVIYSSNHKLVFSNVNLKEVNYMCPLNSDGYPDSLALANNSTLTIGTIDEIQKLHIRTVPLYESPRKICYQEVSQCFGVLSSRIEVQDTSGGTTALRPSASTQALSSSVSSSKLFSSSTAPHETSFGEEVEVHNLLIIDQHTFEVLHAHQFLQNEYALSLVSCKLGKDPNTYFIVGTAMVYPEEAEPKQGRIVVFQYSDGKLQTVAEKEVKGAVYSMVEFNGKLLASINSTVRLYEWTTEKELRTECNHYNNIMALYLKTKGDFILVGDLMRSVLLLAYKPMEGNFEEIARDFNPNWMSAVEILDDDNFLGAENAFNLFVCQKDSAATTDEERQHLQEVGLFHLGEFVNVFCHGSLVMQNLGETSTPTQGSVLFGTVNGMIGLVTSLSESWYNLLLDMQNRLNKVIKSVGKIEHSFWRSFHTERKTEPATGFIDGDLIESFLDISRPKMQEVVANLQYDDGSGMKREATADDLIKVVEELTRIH
UniProt P12004: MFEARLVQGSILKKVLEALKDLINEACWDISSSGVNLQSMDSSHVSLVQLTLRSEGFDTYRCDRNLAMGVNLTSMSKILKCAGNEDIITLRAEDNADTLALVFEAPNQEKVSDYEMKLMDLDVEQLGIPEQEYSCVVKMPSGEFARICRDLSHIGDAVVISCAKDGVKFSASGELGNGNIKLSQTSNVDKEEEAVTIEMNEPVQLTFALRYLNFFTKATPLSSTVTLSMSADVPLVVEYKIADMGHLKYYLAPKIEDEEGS

Like-named read-outs stand apart in the source and are kept apart here. No constants are given. Whether binding was seen depends on the method and setting. In cells and extracts the contact can be indirect. A yes stands for co-enrichment or nearness to the bait. Other partners may have been found.

The target of assay [1] is ESCO2-HF (human) (UniProt Q56NI9). Kind of assay: affinity purification with mass spectrometry; ESCO2-HF over-expressed in 293T; tandem purification from whole cell extracts on anti-FLAG M2 and Ni2+ gels, eluted with FLAG peptide and 300 mM imidazole; final eluates analysed by MS; three repeats; untagged cells and ESCO1-HF as controls.
The target is the same in assay [2]. Described as above. The source holds these as a separate data set.

On to “DDB1 (endogenous, co-purified with ESCO2-HF) (from UniProt Q16531 1-1140)”, for which the binding entry in assay [1] is “binds”.
Turning to “PCNA (endogenous, ESCO2-IP/MS) (from UniProt P12004 1-261)”, the binding result in assay [1] was “binds weakly”.

B1: MMS22L (endogenous, ESCO2-IP/MS) (protein, UniProt Q6ZRQ5 1-1243)
chain: MENCSAASTFLTDSLELELGTEWCKPPYFSCAVDNRGGGKHFSGESYLCSGALKRLILNLDPLPTNFEEDTLEIFGIQWVTETALVNSSRELFHLFRQQLYNLETLLQSSCDFGKVSTLHCKADNIRQQCVLFLHYVKVFIFRYLKVQNAESHVPVHPYEALEAQLPSVLIDELHGLLLYIGHLSELPSVNIGAFVNQNQIKLFPPSWHLLHLHLDIHWLVLEILYMLGEKLKQVVYGHQFMNLASDNLTNISLFEEHCETLLCDLISLSLNRYDKVRSSESLMSDQCPCLCIKELWVLLIHLLDHRSKWFVSESFWNWLNKLLKTLLEKSSDRRRSSMPVIQSRDPLGFSWWIITHVASFYKFDRHGVPDEMRKVESNWNFVEELLKKSISVQGVILEEQLRMYLHCCLTLCDFWEPNIAIVTILWEYYSKNLNSSFSISWLPFKGLANTMKSPLSMLEMVKTCCCDKQDQELYKSSSSYTIFLCILAKVVKKAMKSNGPHPWKQVKGRIYSKFHQKRMEELTEVGLQNFFSLFLLLAAVAEVEDVASHVLDLLNFLKPAFVTSQRALIWKGHMAFLLMYAQKNLDIGVLAEKFSCAFREKAKEFLVSKNEEMVQRQTIWTLLSIYIDGVQEVFETSYCLYPSHEKLLNDGFSMLLRACRESELRTVLSFLQAVLARIRSMHQQLCQELQRDNVDLFVQSSLSAKERHLAAVASALWRHFFSFLKSQRMSQVVPFSQLADAAADFTLLAMDMPSTAPSDFQPQPVISIIQLFGWDDIICPQVVARYLSHVLQNSTLCEALSHSGYVSFQALTVRSWIRCVLQMYIKNLSGPDDLLIDKNLEEAVEKEYMKQLVKLTRLLFNLSEVKSIFSKAQVEYLSISEDPKKALVRFFEAVGVTYGNVQTLSDKSAMVTKSLEYLGEVLKYIKPYLGKKVFSAGLQLTYGMMGILVKSWAQIFATSKAQKLLFRIIDCLLLPHAVLQQEKELPAPMLSAIQKSLPLYLQGMCIVCCQSQNPNAYLNQLLGNVIEQYIGRFLPASPYVSDLGQHPVLLALRNTATIPPISSLKKCIVQVIRKSYLEYKGSSPPPRLASILAFILQLFKETNTDIYEVELLLPGILKCLVLVSEPQVKRLATENLQYMVKACQVGSEEEPSSQLTSVFRQFIQDYGMRYYYQVYSILETVATLDQQVVIHLISTLTQSLKDSEQKWGLGRNIAQREAYSKLLSHLGQMGQDEMQRLENDNT
Take B1: the binding result in assay [2] is reported as “binds weakly”.
